Reference: patent US20140011747A1 (WISCONSIN ALUMNI RESEARCH FOUNDATION, published 2014)
These are yes or no findings as the source states them, for the method shown. For some assays here: In cells and extracts the contact can be indirect. Some entries that bind do so weakly or less than the wild type. For some assays here: Sequences can lack the tags named with a protein.

Sequences of proteins named here, by UniProt entry; tags and fusion partners are left off. A change or cut given only in a name is not applied to a line headed by its entry.
UniProt P23229: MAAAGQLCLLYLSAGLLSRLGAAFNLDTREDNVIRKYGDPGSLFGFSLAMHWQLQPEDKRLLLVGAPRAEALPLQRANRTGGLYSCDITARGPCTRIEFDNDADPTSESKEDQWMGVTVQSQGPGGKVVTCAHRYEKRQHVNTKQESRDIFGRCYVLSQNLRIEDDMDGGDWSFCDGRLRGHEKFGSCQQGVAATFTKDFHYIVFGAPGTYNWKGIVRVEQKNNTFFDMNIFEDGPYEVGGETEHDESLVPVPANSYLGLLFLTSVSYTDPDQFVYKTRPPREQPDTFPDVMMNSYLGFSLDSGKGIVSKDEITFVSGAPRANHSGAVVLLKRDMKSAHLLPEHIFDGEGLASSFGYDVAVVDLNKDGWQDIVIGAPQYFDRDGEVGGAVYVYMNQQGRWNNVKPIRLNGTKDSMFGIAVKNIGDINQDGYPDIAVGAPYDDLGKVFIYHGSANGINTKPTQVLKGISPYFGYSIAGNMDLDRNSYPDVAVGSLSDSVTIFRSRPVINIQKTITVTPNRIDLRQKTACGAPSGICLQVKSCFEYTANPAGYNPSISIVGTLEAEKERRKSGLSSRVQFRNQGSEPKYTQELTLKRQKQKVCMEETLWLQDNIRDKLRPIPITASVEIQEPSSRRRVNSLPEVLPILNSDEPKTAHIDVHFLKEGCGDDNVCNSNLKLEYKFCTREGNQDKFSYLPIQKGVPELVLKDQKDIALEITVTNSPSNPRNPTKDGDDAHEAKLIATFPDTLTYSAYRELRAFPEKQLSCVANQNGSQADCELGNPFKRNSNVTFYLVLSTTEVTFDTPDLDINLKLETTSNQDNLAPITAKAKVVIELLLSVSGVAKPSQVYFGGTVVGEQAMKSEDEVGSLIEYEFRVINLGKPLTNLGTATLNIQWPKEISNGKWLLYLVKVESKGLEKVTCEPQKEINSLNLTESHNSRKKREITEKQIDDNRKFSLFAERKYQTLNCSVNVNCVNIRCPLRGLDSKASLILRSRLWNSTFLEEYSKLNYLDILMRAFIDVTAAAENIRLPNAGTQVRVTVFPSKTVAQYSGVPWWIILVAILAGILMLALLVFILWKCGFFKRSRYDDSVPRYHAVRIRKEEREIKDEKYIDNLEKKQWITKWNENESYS

How the values were obtained:
[1] = target: T1, α6β4 integrin, endogenous in human cell lines (human) (UniProt P23229+P16144); test: co-immunoprecipitation from cell lysates
[2] = target: T1, α6β4 integrin, endogenous in human cell lines (human); test: co-immunoprecipitation from cell lysates, western blot
[3] = target: T1, α6β4 integrin, endogenous in human cell lines (human); test: co-immunoprecipitation from lysates of HNSCC cells, western blot
[4] = target: epidermal growth factor receptor (EGFR), endogenous in human cell lines (human) (UniProt P00533); test: capture from cell lysate on glutathione beads, western blot
[5] = target: T1, α6β4 integrin, endogenous in human cell lines (human); test: as above
[6] = target: epidermal growth factor receptor (EGFR), endogenous in human cell lines (human) (UniProt P00533); test: capture from lysates of EGF-stimulated A431 cells on glutathione beads, western blot
[7] = target: T2, GST-S4CD, Sdc4 cytoplasmic domain fused to GST; test: binding of β4 cytoplasmic domain mutants to syndecan
T2 sequence: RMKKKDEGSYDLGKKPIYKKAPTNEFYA

B1: syndecan-4 (Sdc4), human, endogenous in human cell lines (receptor)
chain: ESIRETEVIDPQDLLEGRYFSGALPDDEDVVGPGQESDDFELSGSGDLDDLEDSMIGPEVVHPLVPLDNHIPERAGSGSQVPTEPKKLEENEVIPKRISPVEESEDVSNKVSMSSTVQGSNIFERTEVLAALIVGGIVGILFAVFLILLLMYRMKKKDEGSYDLGKKPIYKKAPTNEFYA
For B1, the binding [1] was “binds”, the binding [2] was “binds” and the binding [3] was “binds”.

B2: GST-S4ED, recombinant Sdc4 ectodomain fused to GST (other, UniProt P31431 19-145, looked up, not shown: a dimerising Fc or GST)
chain: ESIRETEVIDPQDLLEGRYFSGALPDDEDVVGPGQESDDFELSGSGDLDDLEDSMIGPEVVHPLVPLDNHIPERAGSGSQVPTEPKKLEENEVIPKRISPVEESEDVSNKVSMSSTVQGSNIFERTE
B2 was tested, and the binding [4] was “binds”, the binding [5] was “binds” and the binding [6] was “binds”.

B3: β4^R1733A mutant of the β4 cytoplasmic domain (binding construct) (protein, human, UniProt P16144-2 1677-1752, looked up, not shown: small tags and cut ends)
chain: SRAGLFQHPLQSEYSSITTTHTSATEPFLVDGLTLGAQHLEAGGSLTRHVTQEFVSATLTTSGTLSTHMDQQFFQT
For B3, the binding [7] was “binds”.

B4: syndecan-1 (Sdc1), human, endogenous in human cell lines (receptor, UniProt P18827 23-310, looked up)
chain: QIVATNLPPEDQDGSGDDSDNFSGSGAGALQDITLSQQTPSTWKDTQLLTAIPTSPEPTGLEATAASTSTLPAGEGPKEGEAVVLPEVEPGLTAREQEATPRPRETTQLPTTHLASTTTATTAQEPATSHPHRDMQPGHHETSTPAGPSQADLHTPHTEDGGPSATERAAEDGASSQLPAAEGSGEQDFTFETSGENTAVVAVEPDRRNQSPVDQGATGASQGLLDRKEVLGGVIAGGLVGLIFAVCLVGFMLYRMKKKDEGSYSLEEPKQANGGAYQKPTKQEEFYA
notes: whole, on cells; Used as the comparison for Sdc4 in co-immunoprecipitation
B4 was tested, and the binding [2] was “binds”.
